The source of these data is publication PMC6039025.

The assay addresses T1, Smc4-A1376S-Q1377A, 3xStrepTagII-tagged (S. cerevisiae) (UniProt Q12267).
T1 sequence: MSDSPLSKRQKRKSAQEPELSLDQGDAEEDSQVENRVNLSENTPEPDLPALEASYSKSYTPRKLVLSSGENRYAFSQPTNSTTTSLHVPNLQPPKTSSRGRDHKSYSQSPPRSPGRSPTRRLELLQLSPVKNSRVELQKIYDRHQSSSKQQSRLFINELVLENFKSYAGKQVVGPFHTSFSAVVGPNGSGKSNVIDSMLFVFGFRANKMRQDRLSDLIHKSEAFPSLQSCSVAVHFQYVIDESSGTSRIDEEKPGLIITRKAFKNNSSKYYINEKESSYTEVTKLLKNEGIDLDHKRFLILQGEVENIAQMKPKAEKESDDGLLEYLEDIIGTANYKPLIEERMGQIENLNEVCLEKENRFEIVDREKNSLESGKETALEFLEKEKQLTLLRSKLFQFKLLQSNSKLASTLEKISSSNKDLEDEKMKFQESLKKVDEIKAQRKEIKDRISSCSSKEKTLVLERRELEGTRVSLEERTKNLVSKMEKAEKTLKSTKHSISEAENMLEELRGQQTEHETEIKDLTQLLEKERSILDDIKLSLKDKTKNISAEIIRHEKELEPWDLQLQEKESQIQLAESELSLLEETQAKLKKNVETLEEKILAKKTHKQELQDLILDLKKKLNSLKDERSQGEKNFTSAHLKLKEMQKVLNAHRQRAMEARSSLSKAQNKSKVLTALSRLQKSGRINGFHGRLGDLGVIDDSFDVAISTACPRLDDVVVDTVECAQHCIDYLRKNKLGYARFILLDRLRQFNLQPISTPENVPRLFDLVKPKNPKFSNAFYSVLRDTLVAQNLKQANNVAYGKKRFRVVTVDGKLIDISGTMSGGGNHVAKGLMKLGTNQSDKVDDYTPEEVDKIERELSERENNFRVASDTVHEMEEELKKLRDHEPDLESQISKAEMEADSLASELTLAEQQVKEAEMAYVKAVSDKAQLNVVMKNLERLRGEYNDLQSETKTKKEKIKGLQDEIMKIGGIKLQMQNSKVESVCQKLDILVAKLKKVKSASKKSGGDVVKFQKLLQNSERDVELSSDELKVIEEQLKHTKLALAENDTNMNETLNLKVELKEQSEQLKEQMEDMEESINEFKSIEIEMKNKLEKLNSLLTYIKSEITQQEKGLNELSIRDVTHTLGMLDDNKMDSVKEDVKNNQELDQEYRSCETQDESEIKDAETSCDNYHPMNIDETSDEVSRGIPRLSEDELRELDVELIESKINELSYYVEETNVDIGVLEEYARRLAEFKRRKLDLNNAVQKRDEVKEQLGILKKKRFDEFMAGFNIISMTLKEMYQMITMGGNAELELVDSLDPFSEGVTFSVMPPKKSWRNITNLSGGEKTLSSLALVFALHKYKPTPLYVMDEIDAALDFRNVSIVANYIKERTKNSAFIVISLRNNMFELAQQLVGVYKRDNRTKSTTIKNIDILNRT
The experiment in a line: tandem affinity co-purification (Ni-NTA, Strep-Trap) + SEC; five condensin subunits co-overexpressed in yeast; extract in 500 mM NaCl, 10 mM Tris-HCl pH 8.0, 10% glycerol; Ni-NTA (His tags on Brn1 and Ycg1), then Strep-Trap HP (3xStrepTagII on Smc4), then Superose 6 10/300 in 200 mM NaCl, 50 mM Tris-HCl pH 8.0; subunits seen by SDS-PAGE and Coomassie staining.

These are yes or no findings as the source states them, for the method shown. Some binding calls cover weakened binding; strength is not graded here. Tags and fused reporters may be left off the sequences shown.

B1: Smc2 (protein, UniProt P38989 1-1170)
chain: MKVEELIIDGFKSYATRTVITDWDPQFNAITGLNGSGKSNILDAICFVLGIASMSTVRASSLQDLIYKRGQAGVTKASVTIVFDNTDKSNSPIGFTNSPQISVTRQVVLGGTSKYLINGHRAPQQSVLQLFQSVQLNINNPNFLIMQGKITKVLNMKPSEILSLIEEAAGTKMFEDRREKAERTMSKKETKLQENRTLLTEEIEPKLEKLRNEKRMFLEFQSTQTDLEKTERIVVSYEYYNIKHKHTSIRETLENGETRMKMLNEFVKKTSEEIDSLNEDVEEIKLQKEKELHKEGTISKLENKENGLLNEISRLKTSLSIKVENLNDTTEKSKALESEIASSSAKLIEKKSAYANTEKDYKMVQEQLSKQRDLYKRKEELVSTLTTGISSTGAADGGYNAQLAKAKTELNEVSLAIKKSSMKMELLKKELLTIEPKLKEATKDNELNVKHVKQCQETCDKLRARLVEYGFDPSRIKDLKQREDKLKSHYYQTCKNSEYLKRRVTNLEFNYTKPYPNFEASFVHGVVGQLFQIDNDNIRYATALQTCAGGRLFNVVVQDSQTATQLLERGRLRKRVTIIPLDKIYTRPISSQVLDLAKKIAPGKVELAINLIRFDESITKAMEFIFGNSLICEDPETAKKITFHPKIRARSITLQGDVYDPEGTLSGGSRNTSESLLVDIQKYNQIQKQIETIQADLNHVTEELQTQYATSQKTKTIQSDLNLSLHKLDLAKRNLDANPSSQIIARNEEILRDIGECENEIKTKQMSLKKCQEEVSTIEKDMKEYDSDKGSKLNELKKELKLLAKELEEQESESERKYDLFQNLELETEQLSSELDSNKTLLHNHLKSIESLKLENSDLEGKIRGVEDDLVTVQTELNEEKKRLMDIDDELNELETLIKKKQDEKKSSELELQKLVHDLNKYKSNTNNMEKIIEDLRQKHEFLEDFDLVRNIVKQNEGIDLDTYRERSKQLNEKFQELRKKVNPNIMNMIENVEKKEAALKTMIKTIEKDKMKIQETISKLNEYKRETLVKTWEKVTLDFGNIFADLLPNSFAKLVPCEGKDVTQGLEVKVKLGNIWKESLIELSGGQRSLIALSLIMALLQFRPAPMYILDEVDAALDLSHTQNIGHLIKTRFKGSQFIVVSLKEGMFANANRVFRTRFQDGTSVVSIM
Take B1: the binding entry is listed as “binds”.

B2: Ycg1-3xFLAG-9xHIS (protein, UniProt Q06680 1-1035)
chain: MQDPDGIDINTKIFNSVAEVFQKAQGSYAGHRKHIAVLKKIQSKAVEQGYEDAFNFWFDKLVTKILPLKKNEIIGDRIVKLVAAFIASLERELILAKKQNYKLTNDEEGIFSRFVDQFIRHVLRGVESPDKNVRFRVLQLLAVIMDNIGEIDESLFNLLILSLNKRIYDREPTVRIQAVFCLTKFQDEEQTEHLTELSDNEENFEATRTLVASIQNDPSAEVRRAAMLNLINDNNTRPYILERARDVNIVNRRLVYSRILKSMGRKCFDDIEPHIFDQLIEWGLEDRELSVRNACKRLIAHDWLNALDGDLIELLEKLDVSRSSVCVKAIEALFQSRPDILSKIKFPESIWKDFTVEIAFLFRAIYLYCLDNNITEMLEENFPEASKLSEHLNHYILLRYHHNDISNDSQSHFDYNTLEFIIEQLSIAAERYDYSDEVGRRSMLTVVRNMLALTTLSEPLIKIGIRVMKSLSINEKDFVTMAIEIINDIRDDDIEKQEQEEKIKSKKINRRNETSVDEEDENGTHNDEVNEDEEDDNISSFHSAVENLVQGNGNVSESDIINNLPPEKEASSATIVLCLTRSSYMLELVNTPLTENILIASLMDTLITPAVRNTAPNIRELGVKNLGLCCLLDVKLAIDNMYILGMCVSKGNASLKYIALQVIVDIFSVHGNTVVDGEGKVDSISLHKIFYKVLKNNGLPECQVIAAEGLCKLFLADVFTDDDLFETLVLSYFSPINSSNEALVQAFAFCIPVYCFSHPAHQQRMSRTAADILLRLCVLWDDLQSSVIPEVDREAMLKPNIIFQQLLFWTDPRNLVNQTGSTKKDTVQLTFLIDVLKIYAQIEKKEIKKMIITNINAIFLSSEQDYSTLKELLEYSDDIAENDNLDNVSKNALDKLRNNLNSLIEEINERSETQTKDENNTANDQYSSILGNSFNKSSNDTIEHAADITDGNNTELTKTTVNISAVDNTTEQSNSRKRTRSEAEQIDTSKNLENMSIQDTSTVAKNVSFVLPDEKSDAMSIDEEDKDSESFSEVC
With B2, the binding result is “binds”.

B3: Brn1-3xHA-12xHIS (protein, UniProt P38170 1-754)
chain: MTTQLRYENNDDDERVEYNLFTNRSTMMANFEEWIKMATDNKINSRNSWNFALIDYFYDLDVLKDGENNINFQKASATLDGCIKIYSSRVDSVTTETGKLLSGLAQRKTNGASNGDDSNGGNGEGLGGDSDEANIEIDPLTGMPISNDPDVNNTRRRVYNRVLETTLVEFETIKMKELDQELIIDPLFKKALVDFDEGGAKSLLLNTLNIDNTARVIFDASIKDTQNVGQGKLQRKEEELIERDSLVDDENEPSQSLISTRNDSTVNDSVISAPSMEDEILSLGMDFIKFDQIAVCEISGSIEQLRNVVEDINQAKDFIENVNNRFDNFLTEEELQAAVPDNAEDDSDGFDMGMQQELCYPDENHDNTSHDEQDDDNVNSTTGSIFEKDLMAYFDENLNRNWRGREHWKVRNFKKANLVNKESDLLEETRTTIGDTTDKNTTDDKSMDTKKKHKQKKVLEIDFFKTDDSFEDKVFASKGRTKIDMPIKNRKNDTHYLLPDDFHFSTDRITRLFIKPGQKMSLFSHRKHTRGDVSSGLFEKSTVSANHSNNDIPTIADEHFWADNYERKEQEEKEKEQSKEVGDVVGGALDNPFEDDMDGVDFNQAFEGTDDNEEASVKLDLQDDEDHKFPIRENKVTYSRVSKKVDVRRLKKNVWRSINNLIQEHDSRKNREQSSNDSETHTEDESTKELKFSDIIQGISKMYSDDTLKDISTSFCFICLLHLANEHGLQITHTENYNDLIVNYEDLATTQAAS
As for B3, the binding result is reported as “binds”.

B4: Ycs4 (protein, UniProt Q06156 1-1176)
chain: MSGFSLSEYLTKFQTTDRESYPRLQDPSRELNVIIDQLAVSPEQIDASPDSLEALIDLCHDFPHLTPKLQTQLSYLISSSLSNLSKDIKANLSSNVNFTEIGGLIPQWKRHLEEYGYLIQVLLTFLQDELHKVSSQSTNLNRSAKNSKNDSANVELFKRDCNQMENLLESITKLLEINLSKIFQTTPEKDLFIGLFTRPLFVLLEIEPVTKVSSLKMFIQRILAMCVKNHGQSSSIQSSLMTNLTYFLHLSVFNAELLKLLNDEYNYPQLTEDILKEISTRVFNAKDTTGPKAISNFLIKLSELSPGIMLRQMNLVITLLNNSSITLRCSVVEACGNIVAELAQDPQTMEHYKQQIAVLIELLEERFQDSNPYVRTKAIQGCSKICDLSSKFNKSKAKFTSLAVRSLQDRSSLVRRNSVKLLSKLLLKHPFKAIHGSQLRLSEWEEYLKGSESQLNSTLKKVESQETLNDTIERSLIEEEVEQDEGQCRTELEGSFNKSAELSRIENEVENINATNTSVLMKLKLMIVYYKDAISFIKEIHKSIELISNLLFSKNRNEVLESMDFLVLADAFDIELSEFGIKKMLHLVWMKGTNDEGTSISVHLIECYKQLFLTAPDSCNMQEKAAHIAKNLINLSIGASIADLASLEQLLGMMYEQKLIDQHVINILWAIYNSASKASMQKEQNVNNRDSEKGFSKEQIHGSIIILGMLSLADNEIALKGLESLLNIGLGAVGLKDLTLCRYSCLALERMVPKRSTIITKAINQELEDVAVKKLYAIIINYTKDNEYYPMCEQALSALFTISSKPDILATDLIREKTMMTFGKPEEEDSILSLEQSSRVVSLSQLLFIVGQVAIKTLVYLEKCEAEFKKRKIEAETRNGKVKNQGADVTNTTQDNGGDKELEMIGGTNEDDFTDAIQFVKENELLFGEKSILGKFCPIVEEIVSNSSRFSDPMLQRTATLCLEKLMCLSSKYCEKSLPLLITVMEKSPDPTIRSNAVLGLGDMAVCFNNLVDENTDYLYRRLHDENLMVQRTCLMTVTFLILAGQVKVKGQLGEMAKCLDNPDQGISDMCRLFFTELASKDNAIYNGFIDIFSNLSSDDLLGKESFKKIIKFLLTFIDKERHQKQLNEKLVGRLRKCETQKQWDDIAFVLNNLPYKNEDVTALLEQGFKVVSAKE
With B4, the binding entry is listed as “binds”.
